Experimental data published in the supplement of paper PMC12889115.
Some of the results follow. Values are raw readings; no control value is given beside them.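 Primary screen: polymyxin B was added at a level permeabilizing Salmonella outer membranes while sparing inner membranes. DMSO wells, both with and without polymyxin B, established maximum growth. Plate-to-plate variation meant each plate was ranked on its own, and the lowest-OD600 compounds were selected as hits.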

System: Salmonella enterica serovar Typhimurium SL1344
Assay: bacterial growth OD600 after 18 h with compound and polymyxin B; higher = more bacterial growth (less inhibition)
Details: 50 µM, Mueller-Hinton broth

CCCc1cc(C(=O)NCc2nc(-c3ccc(NC(=O)c4ccc(COC)o4)cc3)oc2C)n(C)n1
bacterial growth OD600 (polymyxin B 0.75 µg/mL): 0.82

O=C(CC1(c2cccc(C(F)(F)F)c2)CC(=O)N(C2CC2)C1=O)N(CC1CC1)CC1CCCO1 (stereo not given)
bacterial growth OD600 (polymyxin B 0.75 µg/mL): 0.133

O=C(CCn1cncn1)N1CCC(C2CCN(Cc3cccc(F)c3F)CC2)C1 (stereo not given)
bacterial growth OD600 (polymyxin B 0.75 µg/mL): 0.833

CCN(Cc1nccn1C)c1ccc(-c2nc(COC)no2)cn1
bacterial growth OD600 (polymyxin B 0.75 µg/mL): 0.867

C=CCO[C@H]1[C@H](NC(=O)COC)c2ccccc2C12CCN(Cc1ccc(F)c(OC)c1)CC2
bacterial growth OD600 (polymyxin B 0.75 µg/mL): 1.03

Nc1ncc(CN(CCN2CCCCC2)CC2CCCN(C3CCCC3)C2)cn1 (stereo not given)
bacterial growth OD600 (polymyxin B 0.75 µg/mL): 0.871

COc1ccc(F)c(CN2CCCC3(CCN(C(=O)C4CCC4)C3)C2=O)c1 (stereo not given)
bacterial growth OD600 (polymyxin B 0.75 µg/mL): 0.775

C=CCCC(=O)N1CCCC(C(=O)Nc2ccc(-c3cccc(OC)c3)cc2)C1 (stereo not given)
bacterial growth OD600 (polymyxin B 1 µg/mL): 0.758

O=C(COc1ccc(Cl)cc1)NCc1cccnc1N1CCOCC1
bacterial growth OD600 (polymyxin B 1 µg/mL): 0.924

CC#CC(=O)NC1CC(=O)N(Cc2cccc(F)c2)C1 (stereo not given)
bacterial growth OD600 (polymyxin B 1 µg/mL): 0.863

CCCCN(C)Cc1cnc(S(=O)(=O)CCC(C)C)n1CCOC
bacterial growth OD600 (polymyxin B 1 µg/mL): 0.987

Fc1ccccc1-c1n[nH]c2c1CN(Cc1cccc3ncccc13)CC2
bacterial growth OD600 (polymyxin B 0.75 µg/mL): 0.834

CN(CC1CCCN(CCc2ccc(Cl)cc2)C1)C(=O)Cn1cnnn1 (stereo not given)
bacterial growth OD600 (polymyxin B 0.75 µg/mL): 0.859

CC(NC(=O)CCc1ccccc1)c1nnc2n1CCN(Cc1ccc3c(c1)Cc1ccccc1-3)CC2 (stereo not given)
bacterial growth OD600 (polymyxin B 0.75 µg/mL): 0.008

O=C(c1ccccc1OC1CCN(C2CCC2)CC1)N1CCCCC1
bacterial growth OD600 (polymyxin B 1 µg/mL): 0.903

CN(Cc1ccc2nsnc2c1)C1CCCN(CCc2ccccc2)C1 (stereo not given)
bacterial growth OD600 (polymyxin B 1 µg/mL): 1.03

O=C(NCCCn1cccn1)c1ccccc1OC1CCN(C(=O)c2cccnc2)CC1
bacterial growth OD600 (polymyxin B 0.75 µg/mL): 1.02

CC(C)(C)NC(=O)C1CCCN(C2CCN(C3Cc4ccccc4C3)CC2)C1 (stereo not given)
bacterial growth OD600 (polymyxin B 0.75 µg/mL): 0.785

COc1ccc(/C=C/C(=O)NCC2CCC3(CCN(CCCc4ccccc4)CC3)O2)cc1OC (stereo not given)
bacterial growth OD600 (polymyxin B 0.75 µg/mL): 0.842

COc1ccccc1CCN1CCCC(CN(C)C(=O)c2cc(C(C)C)nn2C)C1 (stereo not given)
bacterial growth OD600 (polymyxin B 1 µg/mL): 0.821

CCOc1ccc2nc(N3CCCC3C(=O)N3CCCOc4c(cccc4OC)C3)nc(C)c2c1 (stereo not given)
bacterial growth OD600 (polymyxin B 0.75 µg/mL): 0.797

COCCN1CCCC2(CCN(C(=O)c3ccc(F)cc3)C2)C1=O (stereo not given)
bacterial growth OD600 (polymyxin B 1 µg/mL): 0.858

CCn1ccnc1[C@@H]1C[C@H]2CN(Cc3ccccc3C)C(=O)[C@]23CCCN13
bacterial growth OD600 (polymyxin B 0.75 µg/mL): 0.807

CCc1ccc(CN2CCC(CCC(=O)NCC3CCCN3CC)CC2)o1 (stereo not given)
bacterial growth OD600 (polymyxin B 0.75 µg/mL): 0.772

Cc1cc(C(=O)N2CCCC(CCc3c(F)cccc3F)C2)n(C)n1 (stereo not given)
bacterial growth OD600 (polymyxin B 0.75 µg/mL): 0.011

CN(Cc1cnccn1)c1ccc(-c2nc(Cc3ccccc3)no2)cn1
bacterial growth OD600 (polymyxin B 0.75 µg/mL): 0.717

CC(C)N1CCC(NCc2cccnc2N(C)Cc2ccccc2)CC1
bacterial growth OD600 (polymyxin B 1 µg/mL): 0.915

CN(CCc1ccccc1)C1(C(=O)NCc2nccn2C)Cc2ccccc2C1
bacterial growth OD600 (polymyxin B 0.75 µg/mL): 0.338

O=C(NCC1CCCN(C2CCN(Cc3ccccn3)CC2)C1)c1ccc2c(c1)OCO2 (stereo not given)
bacterial growth OD600 (polymyxin B 0.75 µg/mL): 0.97

CSCCNCc1c[nH]nc1-c1ccc(-c2ccccc2)cc1
bacterial growth OD600 (polymyxin B 1 µg/mL): 0.699
